The source of these data is patent publication US20030215854.

Amino acid sequences for entries named in this document (tags omitted).
UniProt Q04206, whole entry: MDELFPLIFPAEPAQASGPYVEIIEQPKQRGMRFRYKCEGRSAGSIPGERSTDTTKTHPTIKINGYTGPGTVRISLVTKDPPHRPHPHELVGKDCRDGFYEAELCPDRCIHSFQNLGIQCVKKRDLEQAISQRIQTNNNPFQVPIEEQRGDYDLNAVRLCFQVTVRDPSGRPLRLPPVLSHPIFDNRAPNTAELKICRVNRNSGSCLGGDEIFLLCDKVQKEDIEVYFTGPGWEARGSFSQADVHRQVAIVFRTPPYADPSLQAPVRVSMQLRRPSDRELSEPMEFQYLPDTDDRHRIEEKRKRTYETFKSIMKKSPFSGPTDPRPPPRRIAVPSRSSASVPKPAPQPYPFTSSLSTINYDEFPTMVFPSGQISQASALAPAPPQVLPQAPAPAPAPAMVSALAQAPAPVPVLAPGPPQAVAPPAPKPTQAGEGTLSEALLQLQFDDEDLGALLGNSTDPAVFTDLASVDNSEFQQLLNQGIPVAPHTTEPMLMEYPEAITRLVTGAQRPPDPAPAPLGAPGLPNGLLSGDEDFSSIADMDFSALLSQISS

Data set [1] has as its target NF-kB p65 (TNF-alpha stimulated HeLa nuclear extract) (Homo sapiens) (UniProt Q04206). Nature of the data set: binding assay. The settings on record: capture by anti-p65 on protein G beads, Luminex; TNF-stimulated extract; no numerical data; poly dI-dC; protein in an extract; label: 5' biotin.
Data set [2] deals with T1, NF-kB p50 (TNF-treated HeLa nuclear extract) (Homo sapiens) (UniProt P19838).
T1 sequence (looked up, limits assumed): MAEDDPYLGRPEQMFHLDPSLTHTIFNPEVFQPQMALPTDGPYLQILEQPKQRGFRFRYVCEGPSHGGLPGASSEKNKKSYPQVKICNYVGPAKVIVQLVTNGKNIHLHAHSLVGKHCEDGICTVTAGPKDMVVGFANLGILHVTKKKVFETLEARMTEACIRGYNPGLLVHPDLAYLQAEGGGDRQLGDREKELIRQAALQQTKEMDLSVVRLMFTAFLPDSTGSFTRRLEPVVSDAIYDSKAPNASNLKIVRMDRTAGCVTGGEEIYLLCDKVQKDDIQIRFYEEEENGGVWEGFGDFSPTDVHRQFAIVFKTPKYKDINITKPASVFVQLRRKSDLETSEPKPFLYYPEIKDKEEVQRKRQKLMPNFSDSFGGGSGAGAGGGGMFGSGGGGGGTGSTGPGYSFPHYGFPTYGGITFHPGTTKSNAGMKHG
In words: binding assay. Conditions: internal amino-C6 between the two parts, coupled to beads; protection from EcoRI cleavage, Luminex; no numerical data; poly dI-dC; protein in an extract; label: 5' biotin.

Construct, isoform or probe ends are uncertain for at least one entry. At least one result comes from cells or an extract, where the contact may be indirect. For some assays here: Tags and fusion partners may be left off the protein sequences shown.

“TATCCAAGGGGACTTTCCCCTGGCAGGGGAAAGTCCCCTTGGATA [biotin-HPNFKB65]”: the binding result in data set [1] is listed as “binds”.

Consider “TCCAAGGGGATTCCCCAGTGTACTGGGGAATCCCCTTGGA [KBREHP]”, for which the binding result in data set [2] is on record as “binds”.
